Drawing on PubChem BioAssay AID1347423 (Functional Genomics Laboratory (NCATS/FGL), 2020), this text covers z-score for 104 sequences.

About 210 (0.4%) of roughly 52,000 sequences were called active.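 How the source made its calls: active means gene whose silencing raises cell survival under the drug, median off-target-corrected z-score across its silencing RNAs 2 or more; inactive means the rest.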 Some of the results follow.

The assay is described as follows: Resistance to Poly (ADP-Ribose) Polymerase inhibitor: Gene Identification via Genome-wide siRNA Screen. Conditions: mouse BRCA2 R2336H ES cells, olaparib, CellTiter-Glo viability; stronger effect = higher value. Summed up: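 Mouse BRCA2 R2336H ES cells were reverse-transfected with siRNA (20 nM final), treated at 48 h with 500 nM olaparib, and read by CellTiter-Glo after 72 h. Scores: MAD-based z per siRNA, median per gene, seed off-target correction.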
(Cellular ATP, detected with luciferase, serves as a proxy for viable cell number.)
As to GGAAUCUGCUAUGCUUAAATT against CRAD-L, the z-score is inactive: -0.983.

Consider GGUAAUAAAGCAAUUGAGUTT against Mcm5, for which the z-score was inactive: 1.01.

On to “GCUCCCAUUUCGUAGGAAATT against 9630041N07”, for which the z-score was inactive: 1.06.

For the sequence GCUUGAUUUCUACGUUCAUTT against Slc15a2, the z-score was inactive: 0.687.

Consider GCUGGGUUCAACAUUAUAGTT against Olfr160, for which the z-score was inactive: 2.64.

In the case of GGUUUAUGAACUGACUUUGTT against Hdh, the z-score was inactive: -0.446.

Consider “CCACUUGAACCAUGUAUUUTT against A430070M19”, for which the z-score is inactive: -0.459.

With GGAGAUUUAAACAGCUAGGTT against Gmip, the z-score is inactive: 0.454.

Consider CCAUUGGACACCUGACAGATT against Rasgef1c, for which the z-score was inactive: -1.33.

Turning to GGGCUUAAGGAGCACUGCATT against Tnxb, the z-score was inactive: 2.33.

GCAUAAGGAUAUAGCAUUATT against Ctla4: the z-score is inactive: -0.299.

In the case of GGUUUUAUCUCUUGUGCCCTT against Mylc2pl, the z-score was inactive: 0.109.

For GGAGAGUCGGAAUUUUUAUTT against Sgcg, the z-score was inactive: -0.06.

GGGUUGAGCAACCGUUUCCTT against Tomm40: the z-score was inactive: -1.18.

Take GCUCCAUUAUGCCAGACUATT against Madcam1: the z-score was inactive: -2.43.

Turning to GGACUAGAGAAUGUUUCUATT against Rom1, the z-score was inactive: 0.946.

As for “GGAUCUCCAGAGCAGAAAATT against E030049G20Rik”, the z-score is inactive: -0.47.

Consider UUUUGCUACUAUCUUGAAGTT against Ugt1a13, for which the z-score was inactive: 1.8.

Turning to GCAAGGUGACAUCAGAAGUTT against Flot2, the z-score was inactive: 2.84.

On to GGAGUCGAUUACGUUUAUUTT against Sec14l1, for which the z-score is inactive: -0.213.

As for GGACUCAUUGACUUCAUCATT against Apg12l, the z-score is inactive: 1.1.

In the case of CCUCUAAAUCCUGAAGUGUTT against AU041707, the z-score is inactive: 1.31.

Take “CCAGUUUCUGUUCUUCCCUTT against 4933402J24Rik”: the z-score was inactive: -0.178.

On to GCAGACACUGUUCGGGAUUTT against Zfp367, for which the z-score was inactive: -1.16.

Take GGCCUUCUUCACCAUUGCUTT against Entpd6: the z-score is inactive: -2.11.

For the sequence GCCGAAUCUUCAAGCCUGUTT against Ssh3, the z-score is inactive: 1.69.

In the case of GCACGUGAACACAAACCCGTT against Nup50, the z-score was inactive: 0.272.

As to CCAUAUUGAUCAGUUGAAGTT against Mapk14, the z-score is inactive: 0.236.

For the sequence GCACCACUAGAGGAAACGATT against Wisp1, the z-score was inactive: 1.25.

Consider “GGUGAAAAUCAUCCAGCGATT against D230050A05”, for which the z-score was inactive: -0.602.

For GGAACUGAAGGCUCUCAUCTT against AY314008, the z-score is inactive: -0.115.

Regarding “GCACUCACAUUGAAUUAAATT against 2410007P03Rik”, the z-score was inactive: -0.0616.

For the sequence CGAAAAUAAUGGGUUCGGUTT against Tbx5, the z-score was inactive: 1.64.

As to “CCAACCUGCUUGCCAAUUGTT against 5031414D18Rik”, the z-score is inactive: 1.82.

In the case of “GGGAAGCUGGGAAAAAAGATT against 2810453K03Rik”, the z-score is inactive: -0.402.

As for “GGUGUAAGUCGGUAUAUUUTT against 4921511I16Rik”, the z-score is inactive: -0.414.

In the case of GGACUGGAAAAUAUCAAACTT against Spata5, the z-score was inactive: 0.501.

With CGAUGGAGUCUGGUAUUCATT against Srpx, the z-score was inactive: 1.76.

In the case of “GCCGUAUGAAUCCUACACATT against 2310075A12Rik”, the z-score is inactive: -0.654.

GGAGCAGCGACUCAACUUUTT against Stub1: the z-score is inactive: 0.162.

For GGUGAAAAAUGCAUUGAAGTT against Olfr1043, the z-score was inactive: 1.08.

Take “GGACAACGGAUUUUAGGAGTT against E130309B19Rik”: the z-score is inactive: 0.426.

For the sequence GGCCAAGAGAAUCUAAAGATT against Strn4, the z-score was inactive: 0.216.

Consider GCGGCAUGGUUAAGAAUUATT against Chst11, for which the z-score is inactive: 0.212.

Consider “CGGAUGAACAUUUACCAAGTT against 9330164H19Rik”, for which the z-score is inactive: -0.536.

For GGUAGCCAGAAAAAAAAAATT against Pkn3, the z-score is inactive: 0.601.

With GGAACCAAAAGCCUGGCGATT against Pkd1l3, the z-score is inactive: 0.0646.

Consider CGACCAGAGUGGAUACCUGTT against Ocm, for which the z-score was inactive: 1.1.

With CCUCUUGUAUGUGUGGUUUTT against Cdc25b, the z-score is inactive: -0.43.

For the sequence CGAGUGUUUGGACAACAAUTT against Ldlr, the z-score is inactive: 1.58.

On to “GGAAUACCAAAGUAUGAAGTT against 4831426I19Rik”, for which the z-score is inactive: 1.59.

With “GGAAGAAGAUUCCUUACAATT against 4933414G08”, the z-score is inactive: 0.786.

On to UGCCGCUCGUGUUUCGGGATT against Hmx2, for which the z-score is inactive: -1.14.

On to GCCAUGAUUUUCAUGUACGTT against Olfr711, for which the z-score was inactive: 0.236.

GGACAUGGGCAAAAUGACCTT against Naga: the z-score is inactive: 0.681.

Regarding “GGCCAUAUUAAGUAUGGAGTT against 3110048E14Rik”, the z-score is inactive: 0.378.

For the sequence “GGUCGACAGAAAAAACAUUTT against 6430556C10Rik”, the z-score is inactive: 0.84.

Consider GGAGUGCAUGACUCAGCUUTT against Olfr926, for which the z-score is inactive: -0.738.

As for “GCUUCCUACUCUCCAGUUUTT against 1110014F24Rik”, the z-score was inactive: 0.321.

Regarding “GCCUUACACUUUCCUACAATT against D630045E04Rik”, the z-score is inactive: 0.912.

As to GCUCCUAUCUACAGCUCUUTT against Samd4, the z-score was inactive: -2.08.

With “CGGAUUAAACAUAGUAACUTT against 1700020H15”, the z-score was inactive: -0.288.

As to GGACUCAAGAGUGAUUUCUTT against Ncoa5, the z-score was inactive: -0.724.

Turning to GCUUCAUCUAAAGGAUAAGTT against Rcn2, the z-score was inactive: 1.1.

Regarding GGAAACCUGAUACUAACAATT against Afmid, the z-score is inactive: -1.13.

For GCUUUGAAAUCUGAAUCAGTT against Terf2, the z-score is inactive: 1.12.

For CGGUCAAAUGUUGGAAGAUTT against Trappc3, the z-score is inactive: 0.358.

As to UGUCAGCGAGGAAUAACCCTT against Olfr503, the z-score was inactive: 0.244.

As for GUUUUUAGGUUGAGAAACUTT against V1rh13, the z-score was inactive: -1.03.

Regarding UUCUUGACAGCUGGAAGAGTT against Iigp5, the z-score is inactive: 1.07.

With “GGUCAUAGAGCUUUAGAUUTT against 4432416J03Rik”, the z-score is inactive: -0.252.

Turning to GGUUUCUGAUUUCAUCAGUTT against D13Wsu14e, the z-score is inactive: 0.0293.

With GCAGUCAUACAGAUUUUGGTT against Slc15a4, the z-score was inactive: -0.732.

On to GCCAAAGCCGAAUGAGAGGTT against Rtn2, for which the z-score is inactive: -0.132.

In the case of GGUGAUCAUUCUGGCAGCUTT against Olfr1215, the z-score was inactive: 1.4.

Turning to “CCACGAGAAGUGGAUAUUATT against B130016O10Rik”, the z-score was inactive: -1.13.

As for GGAAUUGUCCCGGAAGAGGTT against Nipa, the z-score was inactive: 1.07.

Take GGAAGGAAAAGGAUAAAAGTT against Fbxo43: the z-score is inactive: 0.608.

Regarding CGGGUUCUACUAUCAUGCATT against Ltbp4, the z-score is inactive: 0.425.

Turning to GGCCUGAAAAGACUGAUAATT against V2r1b, the z-score is inactive: 0.567.

On to GGUACUCAUUUGUUACCAGTT against Gpr45, for which the z-score was inactive: -1.53.

Regarding GGAGAGUUCACACAGACUGTT against Whrn, the z-score was inactive: -2.05.

For CGAAUGGCUGACCAUAAAATT against Sdro, the z-score was inactive: 0.363.

For the sequence GGAAAUAUCUCUGGUAAUATT against Reln, the z-score was inactive: -0.677.

Take “GGGAGAAGGUAAAAGAAAATT against 4931417A20”: the z-score is inactive: 0.821.

GGUUCACCAUCAAGUCGGATT against Src: the z-score was inactive: 1.93.

Turning to GGAAAUGUCAUGCUUUCAGTT against V1rc5, the z-score is inactive: 1.12.

Turning to GGAUCAAAUGGAAUGUUCUTT against Ccl25, the z-score was inactive: -1.41.

Consider GGAUGCUCAUGCUAAGCAGTT against Krt2-7, for which the z-score is inactive: -1.05.

With GGGUUUUGAACACUACAUCTT against Leng5, the z-score is inactive: -1.57.

In the case of “GAUCCACCCAUCCUACUGUTT against 3322402L07Rik”, the z-score was inactive: -0.605.

Consider GGACUACACAAUUUUCCCUTT against Proz, for which the z-score is inactive: -0.0898.

GGAACUAUCGGCUCUUUCUTT against Zdhhc1: the z-score was inactive: -0.63.

On to GGACACUUAGCAGCAAAGGTT against Lsm7, for which the z-score was inactive: -1.42.

Turning to “CCUCAUAUGGAACCUGCAUTT against 8430429K09Rik”, the z-score was inactive: -0.96.

GCUCUGAUGGUCUACUGCUTT against Rgs3: the z-score was inactive: 0.0266.

Consider GGAUGUGCCAAGAUUUGCCTT against Fzd3, for which the z-score was inactive: -0.83.

In the case of ACUUCGUAAAAGAGCACAATT against LOC435366, the z-score was inactive: 0.889.

For the sequence “GCCCAAUAGCCUAGGACCUTT against 4933412E14Rik”, the z-score is inactive: 0.884.

“GGAGUAGCCACUGAGGACUTT against D2Ertd145e”: the z-score was inactive: -1.66.

For “GGAAGUGAGAUGUCACUGATT against A430110N23”, the z-score was inactive: 0.136.

Take “GGACUUCACAAGAGUAUUATT against 9430022A14”: the z-score is inactive: -0.534.

For “GCCAGAAUAAACAUUAGUGTT against 1700007N18Rik”, the z-score was inactive: 0.527.

For the sequence GCUACUUUGACAUGCACACTT against Drd1ip, the z-score is inactive: 0.131.
